This is a selection; strong and weak results do not stand in their true shares. At the low end of the ranking, values are background and their order means little.

This test deals with T1, ETS2 (UniProt P15036).
T1 sequence: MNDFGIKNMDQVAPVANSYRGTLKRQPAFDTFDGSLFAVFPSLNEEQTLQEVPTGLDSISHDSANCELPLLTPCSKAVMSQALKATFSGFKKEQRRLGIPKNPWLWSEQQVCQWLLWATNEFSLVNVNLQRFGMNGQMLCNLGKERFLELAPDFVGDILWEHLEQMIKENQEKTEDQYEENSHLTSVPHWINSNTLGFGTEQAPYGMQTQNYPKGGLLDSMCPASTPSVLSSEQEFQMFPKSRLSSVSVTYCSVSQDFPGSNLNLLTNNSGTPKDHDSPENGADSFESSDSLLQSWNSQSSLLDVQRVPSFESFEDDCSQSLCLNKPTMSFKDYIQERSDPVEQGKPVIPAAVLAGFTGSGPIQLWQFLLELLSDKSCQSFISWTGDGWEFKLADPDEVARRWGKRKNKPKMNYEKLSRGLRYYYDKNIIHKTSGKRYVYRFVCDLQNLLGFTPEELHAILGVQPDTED
Description: DAPPL (digital affinity profiling via proximity ligation, sequencing). Particulars: 10 mM Tris-HCl pH 7.5, 50 mM NaCl, 1 mM DTT, 4% glycerol, room temperature, 30 min; GST-TFs on glutathione beads, 16-mer random dsDNA library, 0.1% …; high values mean tight binding; double strand, one strand shown; scale: fold enrichment (6-mer frequency, TF over GST control).
AAATTT came in with a binding signal of 1.35.
For the sequence GAACAC, the binding signal came out at 1.12.
The figure for CATGAA is 1.07; for TATCTA it is 1.26.
The same measure for ACATCA: 1.11.
The same measure for ATATTA: 1.06.
For TTGCGG, the binding signal is 1.21.
Turning to CCCTCC, the binding signal was found to be 1.51.
The figure for CTAATT is 1.37.
The figure for CCCGAC is 1.27; for TTGCAT it is 1.42.
The same measure for TTTTTA: 1.34; for CCCTGG: 1.06.
In the case of TTAATT, the binding signal is 1.5.
The figure for GATTCC is 1.14; for AAAGGT it is 1.04.
The figure for TTGGCC is 1.01.
The same measure for CCGGAA: 5.63; for ACTTAC: 1.14.
The sequence CGAGCT came in with a binding signal of 1.07.
The figure for TTTTAC is 1.44; for AATCGA it is 0.998.
The same measure for TGAACC: 1.24; for GGTTTA: 1.02; for AACTTC: 2.63.
The figure for CTCCTG is 1.86.
In turn, ATCCGC gave a binding signal of 1.89.
AATGGC displayed a binding signal of 1.39.
The figure for ATCGCC is 1.3; for CACTGG it is 1.01.
The figure for CGTATT is 1.18; for TGCCAA it is 1.12; for TTAATG it is 1.2.
Sequence CATCCC had a binding signal of 1.33.
The figure for CTTGTG is 1.5; for TTGAAT it is 1.06; for CTTTCA it is 1.31.
The figure for CCACGC is 1.24; for AACGAC it is 1.19.
